Test results: patent US8697703B2, “Piperazine derivatives for blocking Cav2.2 calcium channels” (Convergence Pharmaceuticals Limited, priority 2010, dated 2014)
Some entries share one result that the patent states for a list of compounds. Values belong to the molecule of their own block, whether it stands above or below them.

By UniProt entry, the sequences of proteins in these tests, tags left out. Where a name states a change or a piece, a line headed by the entry shows the natural chain unless it says otherwise.
UniProt Q00975, whole entry: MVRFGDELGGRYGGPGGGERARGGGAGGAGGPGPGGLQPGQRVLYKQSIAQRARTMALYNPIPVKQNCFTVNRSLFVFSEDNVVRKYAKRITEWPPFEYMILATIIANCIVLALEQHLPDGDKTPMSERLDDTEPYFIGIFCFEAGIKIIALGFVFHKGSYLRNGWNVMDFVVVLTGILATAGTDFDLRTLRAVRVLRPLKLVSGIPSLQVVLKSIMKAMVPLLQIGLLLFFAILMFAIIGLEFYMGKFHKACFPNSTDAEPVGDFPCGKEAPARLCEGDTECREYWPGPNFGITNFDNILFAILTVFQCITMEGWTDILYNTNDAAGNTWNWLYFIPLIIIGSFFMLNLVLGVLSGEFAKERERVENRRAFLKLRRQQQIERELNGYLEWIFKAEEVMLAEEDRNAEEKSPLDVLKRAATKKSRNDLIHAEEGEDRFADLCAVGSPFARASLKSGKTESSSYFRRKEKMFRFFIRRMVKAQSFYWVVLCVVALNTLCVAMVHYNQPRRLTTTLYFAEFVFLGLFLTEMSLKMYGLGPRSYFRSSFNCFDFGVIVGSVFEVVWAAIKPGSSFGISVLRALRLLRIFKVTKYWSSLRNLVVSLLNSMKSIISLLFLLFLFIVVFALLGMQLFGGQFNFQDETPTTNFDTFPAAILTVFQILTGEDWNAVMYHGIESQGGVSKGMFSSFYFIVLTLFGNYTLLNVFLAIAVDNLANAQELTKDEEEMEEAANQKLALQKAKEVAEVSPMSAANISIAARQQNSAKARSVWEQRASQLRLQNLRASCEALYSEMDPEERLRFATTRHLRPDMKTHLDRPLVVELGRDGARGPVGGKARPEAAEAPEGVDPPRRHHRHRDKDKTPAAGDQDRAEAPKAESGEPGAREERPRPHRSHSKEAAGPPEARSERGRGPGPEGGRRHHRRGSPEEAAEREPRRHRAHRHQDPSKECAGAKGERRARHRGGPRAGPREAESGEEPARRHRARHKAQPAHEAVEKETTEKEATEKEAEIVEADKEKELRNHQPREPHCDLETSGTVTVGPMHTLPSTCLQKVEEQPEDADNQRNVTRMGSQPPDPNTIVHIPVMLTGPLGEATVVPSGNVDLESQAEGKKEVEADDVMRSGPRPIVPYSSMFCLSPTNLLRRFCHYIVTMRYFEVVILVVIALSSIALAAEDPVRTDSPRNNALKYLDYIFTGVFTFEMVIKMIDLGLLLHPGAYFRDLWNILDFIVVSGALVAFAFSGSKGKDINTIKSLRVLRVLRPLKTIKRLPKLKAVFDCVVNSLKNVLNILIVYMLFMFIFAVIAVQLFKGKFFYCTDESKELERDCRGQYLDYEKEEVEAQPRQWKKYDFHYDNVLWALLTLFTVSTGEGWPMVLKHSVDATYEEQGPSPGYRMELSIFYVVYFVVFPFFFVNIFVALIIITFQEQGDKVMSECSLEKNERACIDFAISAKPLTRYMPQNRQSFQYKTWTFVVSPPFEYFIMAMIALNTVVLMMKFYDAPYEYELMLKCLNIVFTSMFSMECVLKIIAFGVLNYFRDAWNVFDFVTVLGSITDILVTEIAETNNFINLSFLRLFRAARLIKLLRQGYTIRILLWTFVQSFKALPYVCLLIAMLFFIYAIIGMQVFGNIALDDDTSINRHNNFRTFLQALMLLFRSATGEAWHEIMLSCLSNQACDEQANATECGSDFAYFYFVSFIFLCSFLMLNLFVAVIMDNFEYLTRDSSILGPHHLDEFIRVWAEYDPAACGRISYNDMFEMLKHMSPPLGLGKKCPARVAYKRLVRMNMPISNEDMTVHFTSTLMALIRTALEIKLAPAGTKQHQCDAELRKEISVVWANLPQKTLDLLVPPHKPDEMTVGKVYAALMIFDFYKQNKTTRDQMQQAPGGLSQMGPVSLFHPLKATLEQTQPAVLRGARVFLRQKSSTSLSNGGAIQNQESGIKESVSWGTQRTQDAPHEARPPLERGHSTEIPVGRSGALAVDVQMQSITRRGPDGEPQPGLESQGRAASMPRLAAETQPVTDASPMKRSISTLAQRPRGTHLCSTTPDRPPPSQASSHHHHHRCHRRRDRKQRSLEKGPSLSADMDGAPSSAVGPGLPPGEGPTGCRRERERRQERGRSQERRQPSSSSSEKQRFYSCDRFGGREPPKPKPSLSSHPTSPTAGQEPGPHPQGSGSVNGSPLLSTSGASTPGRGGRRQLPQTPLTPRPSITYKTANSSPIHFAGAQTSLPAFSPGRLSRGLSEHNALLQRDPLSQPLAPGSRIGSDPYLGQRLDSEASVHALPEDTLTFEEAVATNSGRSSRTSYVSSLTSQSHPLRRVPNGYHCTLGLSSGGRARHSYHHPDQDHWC

Biological target: T1, hCav2.2 (N-type) calcium channel: human Cav2.2α (α1B) subunit with human β3 and α2δ1 auxiliary subunits (Homo sapiens, UniProt Q00975)
T1 construct: expressed in transfected cells; plasmids pCIN5-hCav2.2, pCIH-hCav β3, pCIP-α2δ1
Experiment: hCav2.2 assay (N-type), IonWorks planar array electrophysiology in stable HEK293 cells
Type: cell-based
Conditions: for pIC50 (tonic): current elicited by the 1st depolarising pulse inhibited by 50%; for pUD30 (use-dependent): concentration producing 30% use-dependent inhibition, 10th versus 1st depolarising pulse, 10 Hz, -90 mV to +10 mV
Protocol: Compounds as defined in the first or second aspect may be tested for in vitro biological activity in the hCav2.2 assay (N-type) in accordance with the following studies:
Stable cell lines expressing the human Cav2.2α (α1B) subunit, along with the human β3 and α2δ1 auxiliary subunits were created following sequential transfection and selection of human embryonic kidney (HEK293) cells. HEK293 cells were cultured in Dulbecco's modified Eagles media/F12 media (Invitrogen, Cat #041-95750V) containing 10% fetal bovine serum, with added L-glutamine (2 mM; Invitrogen, Cat #25030-024) and non-essential amino acids (5%; Invitrogen, Cat #11140-035). Initially HEK293 cells were transfected with two plasmid vectors for expression of the hCav2.2 α subunit (pCIN5-hCav2.2 which carries a neomycin resistance marker) and the hCav β3 subunit (pCIH-hCav β3 which carries a hygromycin resistance marker). Clonal cell lines were isolated following selection in media supplemented with 0.4 mg ml^−1 Geneticin G418 (Invitrogen, Cat #10131-027) and 0.1 mg ml^−1 hygromycin (Invitrogen, Cat #10687-010). These clonal cell lines were assessed for Cav2.2 α/β3-mediated current expression using the IonWorks planar array electrophysiology technology (described below). A clonal line was identified that gave a reasonable level of functional Cav2.2 α/β3 current expression. This cell line was transfected with a plasmid vector for expression of the human α2δ1 subunit (pCIP-α2δ1 which carries a puromycin resistance marker) and clonal cell lines isolated following selection in media containing 0.62 μg ml^−1 puromycin (Sigma, Cat # P-7255), in addition to 0.4 mg ml^−1 Geneticin G418 and 0.1 mg ml^−1 hygromycin. Several cell lines were identified that gave robust levels of Cav2.2 α/β3/α2δ1-mediated current expression and one of these was selected for compound profiling. Expression of all three subunits within this cell line was continuously maintained by the inclusion of G418 (0.4 mg ml^−1), hygromycin (0.1 mg ml^−1) and puromycin (0.62 μg ml^−1). Cells were maintained at 37° C. in a humidified environment containing 5% CO2 in air. Cells were liberated from the T175 culture flasks for passage and harvesting using TrpLE (Invitrogen, Cat #12604-013).
Cells were grown to 30-60% confluence in T175 flasks and maintained at 30° C. for 24 hrs prior to recording. Cells were lifted by removing the growth media, washing with Ca^2+free PBS (Invitrogen, Cat #14190-094) and incubating with 3 ml of warmed (37° C.) TrpLE (Invitrogen, Cat #12604-013) for 6 minutes. Lifted cells were suspended in 10 ml of extracellular buffer. Cell suspension was then placed into a 15 ml tube and centrifuged for 2 minutes at 700 rpm. After centrifugation, the supernatant was removed and the cell pellet was resuspended in 4.5 ml of extracellular solution.
Currents were recorded at room temperature (21-23° C.) using the IonWorks planar array electrophysiology technology (Molecular Devices Corp.). Stimulation protocols and data acquisition were carried out using a microcomputer (Dell Pentium 4). In order to determine planar electrode hole resistances (Rp), a 10 mV, 160 ms potential difference was applied across each hole. These measurements were performed before cell addition. After cell addition a seal test was performed prior to antibiotic (amphotericin) circulation to achieve intracellular access. Leak subtraction was conducted in all experiments by applying a 160 ms hyperpolarizing (10 mV) prepulse 200 ms before the test pulses to measure leak conductance. Test pulses stepping from the holding potential (VH) of −90 mV to +10 mV were applied for 20 ms and repeated 10 times at a frequency of 10 Hz. In all experiments, the test pulse protocol was performed in the absence (pre-read) and presence (post-read) of a compound. Pre- and post-reads were separated by a compound addition followed by a 3-3.5 min incubation. […]

SMILES: C[C@H]1CN(S(=O)(=O)c2ccc(C(F)(F)F)cc2)CCN1C(=O)c1ccc2cccnc2c1 [Compound 1, 7-[((2S)-2-Methyl-4-{[4-(trifluoromethyl)phenyl]sulfonyl}-1-piperazinyl)carbonyl]quinoline]
pIC50 (tonic): ≥ 5.0 | pIC50 (tonic) (listed as compound 1): ≥ 4.5

SMILES: Cc1c(C(=O)N2CCN(S(=O)(=O)c3ccc(OC(F)(F)F)cc3)CC2)ccc2cccnc12 [Compound 2, 8-Methyl-7-{[4-({4-[(trifluoromethyl)oxy]phenyl}sulfonyl)-1-piperazinyl]carbonyl}quinoline]
pIC50 (tonic): ≥ 5.0 | pIC50 (tonic) (listed as compound 2): ≥ 4.5

SMILES: Cc1c(C(=O)N2CCN(S(=O)(=O)c3ccc(C(F)(F)F)cc3)CC2)ccc2cccnc12 [Compound 13, 8-Methyl-7-[(4-{[4-(trifluoromethyl)phenyl]sulfonyl}-1-piperazinyl)carbonyl]quinoline]
pUD30 (use-dependent): ≥ 5.5 | pIC50 (tonic): ≥ 5.0 | pIC50 (tonic) (listed as compound 13): ≥ 4.5

SMILES: Cc1c(C(=O)N2CCN(S(=O)(=O)c3ccc(C#N)cc3)C[C@@H]2C)ccc2cccnc12 [Compound 14, 4-({(3S)-3-Methyl-4-[(8-methyl-7-quinolinyl)carbonyl]-1-piperazinyl}sulfonyl)benzonitrile]
pUD30 (use-dependent): ≥ 4.5 | pIC50 (tonic): ≥ 4.5

SMILES: C[C@H]1CN(S(=O)(=O)c2ccc(C(F)(F)F)cc2)CCN1C(=O)c1cccc2ccncc12.Cl [Compound 20]
pIC50 (tonic): ≥ 4.5

SMILES: Cl.O=C(c1cncc2ccccc12)N1CCN(S(=O)(=O)c2ccc(C(F)(F)F)cc2)CC1 [Compound 25, 4-[(4-{[4-(Trifluoromethyl)phenyl]sulfonyl}-1-piperazinyl)carbonyl]isoquinoline hydrochloride]
pIC50 (tonic): ≥ 4.5

SMILES: C[C@H]1CN(S(=O)(=O)c2ccc(C#N)cc2)CCN1C(=O)c1cccc2ccncc12.Cl [Compound 27, 4-{[(3S)-4-(8-Isoquinolinylcarbonyl)-3-methyl-1-piperazinyl]sulfonyl}benzonitrile hydrochloride]
pUD30 (use-dependent): ≥ 4.5 | pIC50 (tonic): ≥ 4.5

SMILES: O=C(c1cccc2cccnc12)N1CCN(S(=O)(=O)c2ccc(OC(F)(F)F)cc2)CC1 [Compound 30, 8-{[4-({4-[(Trifluoromethyl)oxy]phenyl}sulfonyl)-1-piperazinyl]carbonyl}quinoline]
pUD30 (use-dependent): ≥ 5.5 | pIC50 (tonic): ≥ 4.5

SMILES: Cl.O=C(c1cccc2cccnc12)N1CCN(S(=O)(=O)c2ccc(C(F)(F)F)cc2)CC1 [Compound 31, 8-[(4-{[4-(Trifluoromethyl)phenyl]sulfonyl}-1-piperazinyl)carbonyl]quinoline hydrochloride]
pUD30 (use-dependent) (hydrochloride): ≥ 5.5

More lines, now with the values ahead:

pIC50 (tonic) (listed as compound 3, hydrochloride): ≥ 4.5
SMILES: Cl.O=C(c1ccc2ccccc2n1)N1CCN(S(=O)(=O)c2ccc(C(F)(F)F)cc2)CC1 [Compound 3, 2-[(4-{[4-(Trifluoromethyl)phenyl]sulfonyl}-1-piperazinyl)carbonyl]quinoline hydrochloride]

pIC50 (tonic): ≥ 4.5
SMILES: C[C@H]1CN(S(=O)(=O)c2ccc(C#N)cc2)CCN1C(=O)c1ccc2cccnc2c1.Cl [Compound 6, 4-{[(3S)-3-Methyl-4-(7-quinolinylcarbonyl)-1-piperazinyl]sulfonyl}benzonitrile hydrochloride]

pIC50 (tonic): ≥ 4.5
SMILES: Cc1ccc2ccc(C(=O)N3CCN(S(=O)(=O)c4ccc(C#N)cc4C)CC3)cc2n1.Cl [Compound 9, 3-Methyl-4-({4-[(2-methyl-7-quinolinyl)carbonyl]-1-piperazinyl}sulfonyl)benzonitrile hydrochloride]

pIC50 (tonic): ≥ 5.0 | pIC50 (tonic) (listed as compound 10): ≥ 4.5
SMILES: Cc1ccc2ccc(C(=O)N3CCN(S(=O)(=O)c4ccc(C#N)cc4C)C[C@@H]3C)cc2n1 [Compound 10, 3-Methyl-4-({(3S)-3-methyl-4-[(2-methyl-7-quinolinyl)carbonyl]-1-piperazinyl}sulfonyl)benzonitrile]

pUD30 (use-dependent): ≥ 4.5 | pIC50 (tonic): ≥ 4.5
SMILES: Cc1cc(C#N)ccc1S(=O)(=O)N1CCN(C(=O)c2ccc3cccnc3c2C)[C@@H](C)C1 [Compound 15, 3-Methyl-4-({(3S)-3-methyl-4-[(8-methyl-7-quinolinyl)carbonyl]-1-piperazinyl}sulfonyl)benzonitrile]

pIC50 (tonic): ≥ 4.5
SMILES: Cc1cc(C#N)ccc1S(=O)(=O)N1CCN(C(=O)c2cccc3ccncc23)[C@@H](C)C1.Cl [Compound 29, 4-{[(3S)-4-(8-Isoquinolinylcarbonyl)-3-methyl-1-piperazinyl]sulfonyl}-3-methylbenzonitrile hydrochloride]
